In doi:10.1101/2025.06.20.660715:
Read-outs that look alike come from different tables or passages of the source. Results are given in words; binding and its absence hold for the method and conditions named. In cells and extracts the contact can be indirect. These calls come from enrichment with a bait or labelling near it, and not all partners need be listed.

B1: RASA2 (protein, UniProt Q15283 1-850)
chain: MAAAAPAAAAASSEAPAASATAEPEAGDQDSREVRVLQSLRGKICEAKNLLPYLGPHKMRDCFCTINLDQEEVYRTQVVEKSLSPFFSEEFYFEIPRTFQYLSFYVYDKNVLQRDLRIGKVAIKKEDLCNHSGKETWFSLQPVDSNSEVQGKVHLELKLNELITENGTVCQQLVVHIKACHGLPLINGQSCDPYATVSLVGPSRNDQKKTKVKKKTSNPQFNEIFYFEVTRSSSYTRKSQFQVEEEDIEKLEIRIDLWNNGNLVQDVFLGEIKVPVNVLRTDSSHQAWYLLQPRDNGNKSSKTDDLGSLRLNICYTEDYVLPSEYYGPLKTLLLKSPDVQPISASAAYILSEICRDKNDAVLPLVRLLLHHDKLVPFATAVAELDLKDTQDANTIFRGNSLATRCLDEMMKIVGGHYLKVTLKPILDEICDSSKSCEIDPIKLKEGDNVENNKENLRYYVDKLFNTIVKSSMSCPTVMCDIFYSLRQMATQRFPNDPHVQYSAVSSFVFLRFFAVAVVSPHTFHLRPHHPDAQTIRTLTLISKTIQTLGSWGSLSKSKSSFKETFMCEFFKMFQEEGYIIAVKKFLDEISSTETKESSGTSEPVHLKEGEMYKRAQGRTRIGKKNFKKRWFCLTSRELTYHKQPGSKDAIYTIPVKNILAVEKLEESSFNKKNMFQVIHTEKPLYVQANNCVEANEWIDVLCRVSRCNQNRLSFYHPSVYLNGNWLCCQETGENTLGCKPCTAGVPADIQIDIDEDRETERIYSLFTLSLLKLQKMEEACGTIAVYQGPQKEPDDYSNFVIEDSVTTFKTIQQIKSIIEKLDEPHEKYRKKRSSSAKYGSKENPIVGKAS
B2: FGD1 (protein, UniProt P98174 1-961)
chain: MHGHRAPGGAGPSEPEHPATNPPGAAPPACADSDPGASEPGLLARRGSGSALGGPLDPQFVGPSDTSLGAAPGHRVLPCGPSPQHHRALRFSYHLEGSQPRPGLHQGNRILVKSLSLDPGQSLEPHPEGPQRLRSDPGPPTETPSQRPSPLKRAPGPKPQVPPKPSYLQMPRMPPPLEPIPPPPSRPLPADPRVAKGLAPRAEASPSSAAVSSLIEKFEREPVIVASDRPVPGPSPGPPEPVMLPQPTSQPPVPQLPEGEASRCLFLLAPGPRDGEKVPNRDSGIDSISSPSNSEETCFVSDDGPPSHSLCPGPPALASVPVALADPHRPGSQEVDSDLEEEDDEEEEEEKDREIPVPLMERQESVELTVQQKVFHIANELLQTEKAYVSRLHLLDQVFCARLLEEARNRSSFPADVVHGIFSNICSIYCFHQQFLLPELEKRMEEWDRYPRIGDILQKLAPFLKMYGEYVKNFDRAVELVNTWTERSTQFKVIIHEVQKEEACGNLTLQHHMLEPVQRIPRYELLLKDYLLKLPHGSPDSKDAQKSLELIATAAEHSNAAIRKMERMHKLLKVYELLGGEEDIVSPTKELIKEGHILKLSAKNGTTQDRYLILFNDRLLYCVPRLRLLGQKFSVRARIDVDGMELKESSNLNLPRTFLVSGKQRSLELQARTEEEKKDWVQAINSTLLKHEQTLETFKLLNSTNREDEDTPPNSPNVDLGKRAPTPIREKEVTMCMRCQEPFNSITKRRHHCKACGHVVCGKCSEFRARLVYDNNRSNRVCTDCYVALHGVPGSSPACSQHTPQRRRSILEKQASVAAENSVICSFLHYMEKGGKGWHKAWFVVPENEPLVLYIYGAPQDVKAQRSLPLIGFEVGPPEAGERPDRRHVFKITQSHLSWYFSPETEELQRRWMAVLGRAGRGDTFCPGPTLSEDREMEEAPVAALGATAEPPESPQTRDKT
B3: RGL3 (protein, UniProt Q3MIN7 1-710)
chain: MERTAGKELALAPLQDWGEETEDGAVYSVSLRRQRSQRRSPAEGPGGSQAPSPIANTFLHYRTSKVRVLRAARLERLVGELVFGDREQDPSFMPAFLATYRTFVPTACLLGFLLPPMPPPPPPGVEIKKTAVQDLSFNKNLRAVVSVLGSWLQDHPQDFRDHPAHSDLGSVRTFLGWAAPGSAEAQKAEKLLEDFLEEAEREQEEEPPQVWTGPPRVAQTSDPDSSEACAEEEEGLMPQGPQLLDFSVDEVAEQLTLIDLELFSKVRLYECLGSVWSQRDRPGAAGASPTVRATVAQFNTVTGCVLGSVLGAPGLAAPQRAQRLEKWIRIAQRCRELRNFSSLRAILSALQSNPIYRLKRSWGAVSREPLSTFRKLSQIFSDENNHLSSREILFQEEATEGSQEEDNTPGSLPSKPPPGPVPYLGTFLTDLVMLDTALPDMLEGDLINFEKRRKEWEILARIQQLQRRCQSYTLSPHPPILAALHAQNQLTEEQSYRLSRVIEPPAASCPSSPRIRRRISLTKRLSAKLAREKSSSPSGSPGDPSSPTSSVSPGSPPSSPRSRDAPAGSPPASPGPQGPSTKLPLSLDLPSPRPFALPLGSPRIPLPAQQSSEARVIRVSIDNDHGNLYRSILLTSQDKAPSVVRRALQKHNVPQPWACDYQLFQVLPGDRVLLIPDNANVFYAMSPVAPRDFMLRRKEGTRNTLSVSPS
B4: DENDD2A (protein, UniProt Q9ULE3 1-1009)
chain: MDMFSLDMIISDPAAEASRAGKKQLRGVQNPCPSARARPRHKSLNIKDKISEWEGKKEVPTPAPSRRADGQEDYLPSSTVERRSSDGVRTQVTEAKNGMRPGTESTEKERNKGAVNVGGQDPEPGQDLSQPEREVDPSWGRGREPRLGKLRFQNDPLSVLKQVKKLEQALKDGSAGLDPQLPGTCYSPHCPPDKAEAGSTLPENLGGGSGSEVSQRVHPSDLEGREPTPELVEDRKGSCRRPWDRSLENVYRGSEGSPTKPFINPLPKPRRTFKHAGEGDKDGKPGIGFRKEKRNLPPLPSLPPPPLPSSPPPSSVNRRLWTGRQKSSADHRKSYEFEDLLQSSSESSRVDWYAQTKLGLTRTLSEENVYEDILDPPMKENPYEDIELHGRCLGKKCVLNFPASPTSSIPDTLTKQSLSKPAFFRQNSERRNFKLLDTRKLSRDGTGSPSKISPPSTPSSPDDIFFNLGDPQNGRKKRKIPKLVLRINAIYEVRRGKKRVKRLSQSMESNSGKVTDENSESDSDTEEKLKAHSQRLVNVKSRLKQAPRYPSLARELIEYQERQLFEYFVVVSLHKKQAGAAYVPELTQQFPLKLERSFKFMREAEDQLKAIPQFCFPDAKDWVPVQQFTSETFSFVLTGEDGSRRFGYCRRLLPGGKGKRLPEVYCIVSRLGCFSLFSRILDEVEKRRGISPALVQPLMRSVMEAPFPALGKTILVKNFLPGSGTEVIELCRPLDSRLEHVDFESLFSSLSVRHLVCVFASLLLERRVIFIADKLSILSKCCHAMVALIYPFAWQHTYIPVLPPAMVDIVCSPTPFLIGLLSSSLPLLRELPLEEVLVVDLVNSRFLRQMDDEDSILPRKLQVALEHILEQRNELACEQDEGPLDGRHGPESSPLNEVVSEAFVRFFVEIVGHYSLFLTSGEREERTLQREAFRKAVSSKSLRHFLEVFMETQMFRGFIQERELRRQDAKGLFEVRAQEYLETLPSGEHSGVNKFLKGLGNKMKFLHKK
B5: SYNJ2 (enzyme, UniProt O15056 1-1496)
chain: MALSKGLRLLGRLGAEGDCSVLLEARGRDDCLLFEAGTVATLAPEEKEVIKGQYGKLTDAYGCLGELRLKSGGTSLSFLVLVTGCTSVGRIPDAEIYKITATDFYPLQEEAKEEERLIALKKILSSGVFYFSWPNDGSRFDLTVRTQKQGDDSSEWGNSFFWNQLLHVPLRQHQVSCCDWLLKIICGVVTIRTVYASHKQAKACLVSRVSCERTGTRFHTRGVNDDGHVSNFVETEQMIYMDDGVSSFVQIRGSVPLFWEQPGLQVGSHHLRLHRGLEANAPAFDRHMVLLKEQYGQQVVVNLLGSRGGEEVLNRAFKKLLWASCHAGDTPMINFDFHQFAKGGKLEKLETLLRPQLKLHWEDFDVFTKGENVSPRFQKGTLRMNCLDCLDRTNTVQSFIALEVLHLQLKTLGLSSKPIVDRFVESFKAMWSLNGHSLSKVFTGSRALEGKAKVGKLKDGARSMSRTIQSNFFDGVKQEAIKLLLVGDVYGEEVADKGGMLLDSTALLVTPRILKAMTERQSEFTNFKRIRIAMGTWNVNGGKQFRSNVLRTAELTDWLLDSPQLSGATDSQDDSSPADIFAVGFEEMVELSAGNIVNASTTNKKMWGEQLQKAISRSHRYILLTSAQLVGVCLYIFVRPYHVPFIRDVAIDTVKTGMGGKAGNKGAVGIRFQFHSTSFCFICSHLTAGQSQVKERNEDYKEITQKLCFPMGRNVFSHDYVFWCGDFNYRIDLTYEEVFYFVKRQDWKKLLEFDQLQLQKSSGKIFKDFHEGAINFGPTYKYDVGSAAYDTSDKCRTPAWTDRVLWWRKKHPFDKTAGELNLLDSDLDVDTKVRHTWSPGALQYYGRAELQASDHRPVLAIVEVEVQEVDVGARERVFQEVSSFQGPLDATVVVNLQSPTLEEKNEFPEDLRTELMQTLGSYGTIVLVRINQGQMLVTFADSHSALSVLDVDGMKVKGRAVKIRPKTKDWLKGLREEIIRKRDSMAPVSPTANSCLLEENFDFTSLDYESEGDILEDDEDYLVDEFNQPGVSDSELGGDDLSDVPGPTALAPPSKSPALTKKKQHPTYKDDADLVELKRELEAVGEFRHRSPSRSLSVPNRPRPPQPPQRPPPPTGLMVKKSASDASISSGTHGQYSILQTARLLPGAPQQPPKARTGISKPYNVKQIKTTNAQEAEAAIRCLLEARGGASEEALSAVAPRDLEASSEPEPTPGAAKPETPQAPPLLPRRPPPRVPAIKKPTLRRTGKPLSPEEQFEQQTVHFTIGPPETSVEAPPVVTAPRVPPVPKPRTFQPGKAAERPSHRKPASDEAPPGAGASVPPPLEAPPLVPKVPPRRKKSAPAAFHLQVLQSNSQLLQGLTYNSSDSPSGHPPAAGTVFPQGDFLSTSSATSPDSDGTKAMKPEAAPLLGDYQDPFWNLLHHPKLLNNTWLSKSSDPLDSGTRSPKRDPIDPVSAGASAAKAELPPDHEHKTLGHWVTISDQEKRTALQVFDPLAKT
B6: MTMR12 (protein, UniProt Q9C0I1 1-747)
chain: MLGKGVVGGGGGTKAPKPSFVSYVRPEEIHTNEKEVTEKEVTLHLLPGEQLLCEASTVLKYVQEDSCQHGVYGRLVCTDFKIAFLGDDESALDNDETQFKNKVIGENDITLHCVDQIYGVFDEKKKTLFGQLKKYPEKLIIHCKDLRVFQFCLRYTKEEEVKRIVSGIIHHTQAPKLLKRLFLFSYATAAQNNTVTDPKNHTVMFDTLKDWCWELERTKGNMKYKAVSVNEGYKVCERLPAYFVVPTPLPEENVQRFQGHGIPIWCWSCHNGSALLKMSALPKEQDDGILQIQKSFLDGIYKTIHRPPYEIVKTEDLSSNFLSLQEIQTAYSKFKQLFLIDNSTEFWDTDIKWFSLLESSSWLDIIRRCLKKAIEITECMEAQNMNVLLLEENASDLCCLISSLVQLMMDPHCRTRIGFQSLIQKEWVMGGHCFLDRCNHLRQNDKEEVPVFLLFLDCVWQLVHQHPPAFEFTETYLTVLSDSLYIPIFSTFFFNSPHQKDTNMGREGQDTQSKPLNLLTVWDWSVQFEPKAQTLLKNPLYVEKPKLDKGQRKGMRFKHQRQLSLPLTQSKSSPKRGFFREETDHLIKNLLGKRISKLINSSDELQDNFREFYDSWHSKSTDYHGLLLPHIEGPEIKVWAQRYLRWIPEAQILGGGQVATLSKLLEMMEEVQSLQEKIDERHHSQQAPQAEAPCLLRNSARLSSLFPFALLQRHSSKPVLPTSGWKALGDEDDLAKREDEFVDLGDV

Key:
Experiment in all cases: proximity labelling
BirA-tagged KRAS^WT [1] = biological target: BirA-tagged KRAS^WT (UniProt P01116)
BirA-tagged KRAS^WT [2] = biological target: BirA-tagged KRAS^WT (UniProt P01116); remark: listed apart in the source
MiniTurbo-tagged KRAS^WT = MiniTurbo-tagged KRAS^WT (UniProt P01116)

Row | Binder | binding (BirA-tagged KRAS^WT [1]) | binding (BirA-tagged KRAS^WT [2]) | binding (MiniTurbo-tagged KRAS^WT)
1 | B1 | binds | binds | –
2 | B2 | – | – | binds
3 | B3 | – | – | binds
4 | B4 | – | – | binds
5 | B5 | – | – | binds
6 | B6 | – | – | binds
